The values are deposited in ChEMBL (CHEMBL3988442, “University of Dundee, Small-Polar-MMV Screening Library” (2021)).

Amino acid sequences for entries named in this document (tags omitted).
UniProt E9BF75, entry or part of it: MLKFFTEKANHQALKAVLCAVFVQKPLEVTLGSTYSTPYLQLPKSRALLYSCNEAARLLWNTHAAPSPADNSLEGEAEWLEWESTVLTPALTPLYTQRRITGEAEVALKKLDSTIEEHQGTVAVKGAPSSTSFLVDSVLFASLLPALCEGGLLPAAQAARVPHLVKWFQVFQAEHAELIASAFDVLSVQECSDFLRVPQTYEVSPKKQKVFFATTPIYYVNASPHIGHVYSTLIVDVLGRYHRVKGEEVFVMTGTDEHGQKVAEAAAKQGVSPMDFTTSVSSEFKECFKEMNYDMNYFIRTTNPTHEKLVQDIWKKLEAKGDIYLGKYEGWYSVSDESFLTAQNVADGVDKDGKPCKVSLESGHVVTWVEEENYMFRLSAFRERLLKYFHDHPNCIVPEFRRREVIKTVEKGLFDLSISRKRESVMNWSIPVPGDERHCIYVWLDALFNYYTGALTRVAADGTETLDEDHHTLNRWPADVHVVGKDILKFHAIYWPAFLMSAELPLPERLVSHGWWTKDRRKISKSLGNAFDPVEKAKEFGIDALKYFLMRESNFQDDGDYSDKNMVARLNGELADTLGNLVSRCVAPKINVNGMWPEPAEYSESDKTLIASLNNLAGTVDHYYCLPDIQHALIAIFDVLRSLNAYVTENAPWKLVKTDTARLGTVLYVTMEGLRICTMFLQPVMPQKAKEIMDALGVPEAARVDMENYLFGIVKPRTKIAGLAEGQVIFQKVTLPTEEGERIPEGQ

Results are percentages, as filed. The record does not define 0% and 100%; most values in the screen are far below 50% and negative numbers occur (in some assays of this library far below -100). Compounds were drawn at random from those tested, without regard to their results.

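Methionyl-tRNA synthetase (putative), Leishmania donovani (UniProt E9BF75). Primary screen of methionyl-tRNA synthetase; the read-out is not stated. The test concentration is not given. The values are filed as inhibition. About 68,000 compounds were tested under these conditions; 0.035% (about 24) showed 50% or more at least once.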

- Cc1cc(CN(C)Cc2cc3c(cc2OC(F)F)OCO3)on1 : 13.75%
- COc1cc(/C=C/c2ncc(C(=O)O)s2)cc(Cl)c1OC : 1.14%
- Cn1cnnc1C1CCN(C(=O)c2cc(-c3ccccc3)on2)CC1 : 13.51%
- CC(C)C(C(=O)N1CCC(Nc2cccnn2)CC1)n1cncn1 (stereo not shown) : 3.268%
- O=C1CCC(C(=O)NCc2nn(-c3ccccc3)c3c2CCC3)CN1 (stereo not shown) : 5.521%
- COCCNCc1ccc(OCC(=O)NC(C)(C)C)cc1 : 14.92%
- CCN(CC)C1COc2c(cc(Br)c(C)c2C)C1=O (stereo not shown) : 6.757%
- CC(=O)N1CCCC(c2ccc(C(N)=O)cn2)C1 (stereo not shown) : 10.36%
- O=C1CC[C@@H]2[C@@H](CCN2S(=O)(=O)C2CC2)N1CC1CC1 : 3.636%
- Cc1nc(C)n(CC2CCCN(Cc3cn4c(C)cccc4n3)C2)n1 (stereo not shown) : 26.3%
- CC(C)N1CCC(CC(=O)N(C)C(C)c2cncs2)CC1 (stereo not shown) : 11.63%
- CNC(=O)[C@@H]1C[C@H]2CN(Cc3csc(C)n3)C[C@H]2N1C(C)C : 18.13%
- CC(c1nc(C2CC2)no1)N1CCc2c(ncn2C2CC2)C1 (stereo not shown) : 13.55%
- Cc1ccsc1CN1C[C@@H]2CN(Cc3cccnc3)CCO[C@@H]2C1 : 0%
- CC(C)c1nc(CC(=O)Nc2cnccc2O)cs1 : 4.749%
- COC[C@H]1CC[C@H]2[C@H](CCN2C(=O)c2ccncc2F)O1 : 18.78%
- CCCOc1ccc(CCC(=O)Nc2nonc2C)cc1 : -7.094%
- COC(=O)CC1C(=O)NCCN1c1nc2c(s1)c(C)nn2C (stereo not shown) : 2.957%
- CCOCC(O)CN1CCN(C(=O)Cc2cccc(Cl)c2)CC1 (stereo not shown) : 20%
- CC(C(=O)NCc1ccnc(OCC(F)(F)F)c1)n1cncn1 (stereo not shown) : 6.522%
- O=C(c1ccc[nH]1)N1CCC2(CCCN2Cc2cccnc2)CC1 : 13.87%
- Cn1cc(-c2nc(CN3CCOC(Cn4cccn4)C3)cs2)cn1 (stereo not shown) : 13.71%
- COc1ccc(C(C)N(C)Cc2c(C(C)(C)C)[nH]c3ncccc23)cc1 (stereo not shown) : 5.975%
- Cc1ccc(N2CC[C@H](OCC3CC3)[C@@H]2Cc2cccnc2)nn1 : 8.242%
- CN(C)c1cc(C2CCCN2C(=O)c2ccc(=O)n(C)c2)ccn1 (stereo not shown) : 4.516%
- Cc1cc(CNC(=O)[C@H]2CCCCN2C(=O)OC(C)(C)C)on1 : 16.85%
- CCCOCCN1CCC2(CC1)CC(=O)N(Cc1cc(F)cc(F)c1)C2 : 10.7%
- Cc1ccccc1CN1CCN(C(=O)CN2CCOC2=O)CC1 : 2.892%
- CC(C)Cn1cncc1CNC(=O)c1cccc(CC2CCNCC2)c1 : 8.014%
- CN1CCN(c2cccc(NC(=O)NCc3csc(N(C)C)n3)c2)C1=O : 15.41%
- CN1CCOC(C(=O)Nc2ccc3c(c2)nc(C2CC2)n3C)C1 (stereo not shown) : 10.07%
- O=C(Cn1c(=O)oc2ccccc21)N1Cc2cncnc2C1 : 12.23%
- Cc1cc(C)c(CNC(=O)N(C)Cc2ccc(F)cc2)c(=O)[nH]1 : 9.143%
- COc1c(C)cnc(CN(C)C2CCOC3(CCOCC3)C2)c1C (stereo not shown) : 8.169%
- CNC(=O)Cc1ccc(NC(=O)NCC(C)c2ncc(C)s2)cc1 (stereo not shown) : 16.72%
- Cc1noc(CCCNC(=O)C2CSCN2C(=O)C(C)(C)C)n1 (stereo not shown) : 9.756%
- C=Cn1ncc(CN2C[C@@H]3C[C@@H](O)CN3C[C@@H]2Cc2ccccc2)c1C : 9.04%
- Cc1ccc(N2C[C@@H](CN3CCOCC3)[C@@H](CO)C2)nn1 : 8.393%
- Oc1nc(N2CCOCC2)nc2c1CCN(Cc1cccnc1)CC2 : 18.15%
- Cc1nc(C(=O)N2CCCC2c2noc(C)n2)c[nH]1 (stereo not shown) : 19.94%
- O=C(c1ccc(COc2ccccc2Cl)o1)N1N=CCC1(O)C(F)(F)F (stereo not shown) : 8.393%
- CCn1nc(CC(C)C)cc1C(=O)NCc1c(C)cc(C)nc1OC : 12.96%
- CCCc1nc(CN(CC)Cc2ccoc2)no1 : 7.463%
- O[C@]12CC[C@H](CC1)N(Cc1ccc(F)cc1)C2CN1CCOCC1 (stereo partly shown) : 17.26%
- CCN(CC(C)O)C(=O)Nc1cnn(CCOC)c1 (stereo not shown) : 4.79%
- Cc1ccc(NCc2ccc(C#N)cc2)cc1-n1cnnn1 : 3.308%
- Cc1cc(CN2CCC(CNC(=O)C3(c4ccccc4)CC3)C2)[nH]n1 (stereo not shown) : 16.84%
- COc1ccc(Cl)c(NCC(=O)NCC(=O)N2CCCC2)c1 : 9.044%
- COCC1(CNC(=O)Nc2cc(F)ccc2OC)CCCC1 : 4.53%
- CC(C)C(=O)Nc1ccc(Sc2nncn2C)c(Cl)c1 : 7.379%
- CCc1noc(C(C)Sc2nnc(C3CC3)n2CC(N)=O)n1 (stereo not shown) : 13.84%
- CCOCCC(=O)N(Cc1ccncc1)C(C)CC (stereo not shown) : 2.594%
- Cn1ncc2c1C(COCC1CC1)CN(Cc1ccncc1)C2 (stereo not shown) : 20.62%
- CC(=O)NCC(=O)N1CC[C@H](OCC2CC2)[C@@H]1Cc1cccnc1 : 14.64%
- COc1cc2nc(C)n(CC(=O)O)c(=O)c2cc1OC : 14.52%
- CC(NC(=O)Nc1cccnc1N1CCCC1)c1ccccn1 (stereo not shown) : 2.957%
- O=C(Cn1cnc(-c2ccccc2)cc1=O)Nc1ccncc1 : 15.69%
- CCc1cc(CNC(=O)N2CCN(c3nc(C)c(C)s3)CC2)on1 : 20.98%
- CCOC(=O)N1[C@@H](c2ccco2)[C@@H](C(=O)NC)C[C@]12CCCCNC2=O : 3.562%

The last 6 entries again:

| Compound | inhibition |
|---|---|
| `CC(=O)NCC(=O)N1CC[C@H](OCC2CC2)[C@@H]1Cc1cccnc1` | 14.64% |
| `COc1cc2nc(C)n(CC(=O)O)c(=O)c2cc1OC` | 14.52% |
| `CC(NC(=O)Nc1cccnc1N1CCCC1)c1ccccn1` (stereo not shown) | 2.957% |
| `O=C(Cn1cnc(-c2ccccc2)cc1=O)Nc1ccncc1` | 15.69% |
| `CCc1cc(CNC(=O)N2CCN(c3nc(C)c(C)s3)CC2)on1` | 20.98% |
| `CCOC(=O)N1[C@@H](c2ccco2)[C@@H](C(=O)NC)C[C@]12CCCCNC2=O` | 3.562% |